The record followed here is article PMC5852537.

Assay [1] has as its target T1, AtBPM2 (Arabidopsis) (UniProt Q9M8J9).
T1 sequence: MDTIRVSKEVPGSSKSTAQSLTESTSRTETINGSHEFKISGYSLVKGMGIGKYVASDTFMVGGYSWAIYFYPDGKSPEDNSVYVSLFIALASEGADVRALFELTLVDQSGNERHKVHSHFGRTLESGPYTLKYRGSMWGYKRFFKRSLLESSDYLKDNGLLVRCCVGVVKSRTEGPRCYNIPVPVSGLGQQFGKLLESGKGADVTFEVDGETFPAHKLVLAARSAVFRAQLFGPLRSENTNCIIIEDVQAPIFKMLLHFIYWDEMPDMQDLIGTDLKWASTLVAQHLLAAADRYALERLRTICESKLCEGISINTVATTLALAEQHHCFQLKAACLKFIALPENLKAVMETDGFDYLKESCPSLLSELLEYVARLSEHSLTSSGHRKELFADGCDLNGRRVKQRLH
Kind of assay: two-hybrid; yeast AH109; DREB2 in pGADT7, BPM2 in pGBKT7; growth on SD medium lacking Leu, Trp, His and Ade (SD-LWHA).

Assay [2] addresses T2, AtDRIP1 (125-C end) (Arabidopsis) (UniProt Q9M9Y4).
T2 sequence: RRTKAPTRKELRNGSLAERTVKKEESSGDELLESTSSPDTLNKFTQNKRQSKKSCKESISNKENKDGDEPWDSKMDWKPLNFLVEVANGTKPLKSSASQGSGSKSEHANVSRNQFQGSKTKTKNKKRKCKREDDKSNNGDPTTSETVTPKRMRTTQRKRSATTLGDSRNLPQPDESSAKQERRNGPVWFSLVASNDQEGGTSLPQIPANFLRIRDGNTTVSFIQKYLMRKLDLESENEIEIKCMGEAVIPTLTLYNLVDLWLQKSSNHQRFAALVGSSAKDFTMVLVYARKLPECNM
Kind of assay: two-hybrid; yeast AH109; LlDREB2B in pGADT7, AtDRIP1 (125-C end) or AtDRIP2 (131-C end) in pGBKT7; selection medium of this experiment not told (Supplementary Figure S4).

The target of assay [3] is T3, AtDRIP2 (131-C end) (Arabidopsis) (UniProt Q94AY3).
T3 sequence: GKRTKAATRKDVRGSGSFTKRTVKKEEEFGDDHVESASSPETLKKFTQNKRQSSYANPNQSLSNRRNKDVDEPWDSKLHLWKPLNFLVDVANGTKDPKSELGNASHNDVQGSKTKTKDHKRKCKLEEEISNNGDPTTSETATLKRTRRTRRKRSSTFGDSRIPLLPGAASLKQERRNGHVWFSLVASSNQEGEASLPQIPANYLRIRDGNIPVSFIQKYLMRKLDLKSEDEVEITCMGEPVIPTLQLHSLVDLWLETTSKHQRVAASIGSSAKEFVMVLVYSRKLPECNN
The assay is described as above.

No constants are given. Whether binding was seen depends on the method and setting. For part of these data: Binding can be weak; no strength is given.

On to LlDREB2B (Lilium longiflorum), for which the figures for the binding entry in assay [1], in assay [2] and in assay [3] were “no binding”, “binds” and “binds”, respectively.
